Z-score data for 104 sequences are collected here from PubChem BioAssay AID1347423 (Functional Genomics Laboratory (NCATS/FGL), 2020).

Screen size: about 52,000 sequences; about 210 (0.4%) were called active.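 How the source made its calls: active means gene whose silencing raises cell survival under the drug, median off-target-corrected z-score across its silencing RNAs 2 or more; inactive means the rest.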 The list shows a part of the results.

This assay in a line: Resistance to Poly (ADP-Ribose) Polymerase inhibitor: Gene Identification via Genome-wide siRNA Screen. The conditions noted are these: mouse BRCA2 R2336H ES cells, olaparib, CellTiter-Glo viability; active compounds read high. A digest of the protocol:
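Mouse BRCA2 R2336H ES cells were reverse-transfected with siRNA (20 nM final), treated at 48 h with 500 nM olaparib, and read by CellTiter-Glo after 72 h. Scores: MAD-based z per siRNA, median per gene, seed off-target correction.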
Background: ATP-based viability assays read luminescence as a measure of living cells.
On to “GCUCCCAUUAUCAUUCAAATT against 2810009O15Rik”, for which the z-score is inactive: 0.414.

Turning to GCCUCCAAUAAGAUUAUAUTT against Ceacam10, the z-score is inactive: -1.17. Regarding GGAGAUCCUCAAGGAGCAGTT against Park7, the z-score is inactive: 1.9.

With GGACGUGAAAGCUUUGGUUTT against Nrip3, the z-score is inactive: 0.209. In the case of GGAACAGCAAAAAUAAGACTT against V1re5, the z-score is inactive: 0.927.

For the sequence GGAAGCCUUGUGUGCACAUTT against Gng10, the z-score is inactive: 0.39. On to GGCCGAAGAAUUCAUCUUUTT against C85492, for which the z-score is inactive: 0.769. Turning to “GGGCAAACAACAUCGAUGGTT against 2610014F08Rik”, the z-score was inactive: -0.356. On to GGGCAGAAAAUUGACUUAATT against Sdccag1, for which the z-score was inactive: -1.8.

Regarding GCUGGUUCUGUUUGUUAUUTT against Olfr1014, the z-score is inactive: 0.484.

For the sequence GGAGAUCACCAAAUUUGAGTT against Eef1d, the z-score was inactive: -0.69. Take “GGGACUCAGUGUUUAUUGATT against B230114P05Rik”: the z-score was inactive: 1.34. On to CGUAUUUAUGUUCUGUUGUTT against Sox8, for which the z-score is inactive: 0.56. As for GGAGGAAAGUUGUAUUUGATT against Nudt7, the z-score is inactive: 0.0407. In the case of GGACUUCUACGUGAUGGAGTT against Pip5k1c, the z-score was inactive: 1.51. For GCUGAUCGAGUAGCUAUUATT against Cse1l, the z-score is inactive: -2.75. To CCUGUUUGAGAUAUUUGAATT against Npnt belongs inactive: -0.653; to GGAGAUUACGAGAUGUCAATT against BC031781, inactive: -0.111. GCUUAAAACUUCACGAGGATT against Ppp1r3c: the z-score is inactive: -1.12. For the sequence GGAGUUCAAGAGCACAAAUTT against Atp4a, the z-score was inactive: -1.34.

On to GGCAGAGAAUGGAAGAGAUTT against Ptma, for which the z-score was inactive: -1.27.

On to “CCCGGAUGAUGGAGAUAUUTT against 2610034E18Rik”, for which the z-score was inactive: -1.14. As for GGAUGUGCAAGAGUAUCUCTT against Fbp2, the z-score was inactive: 1.05. To GGGAUCAUGGAUUUCUUCCTT against BC025600 belongs inactive: 0.237; to GGCGACAUCAUGCUAAUGATT against Fgfbp1, inactive: -1.51. Turning to GGACAUAGUGAUGCUUCAGTT against MGC36320, the z-score was inactive: 1.95. As for GGUAAUACAUUCCUCUAACTT against Zfyve16, the z-score is inactive: 0.179.

For the sequence AAGGUUUGGAAACUCAUUGTT against Zfp50, the z-score was inactive: 0.0761.

In the case of CCUAAACAUGCUGUCCCUATT against Apoc3, the z-score was inactive: -2.6. GGAAAUUUGCCUAUUGAAATT against Il6: the z-score is inactive: -0.17. To “GGAAUAAGUCCUAUGAAUCTT against 3830421F13Rik” belongs inactive: 0.848; to CGGAGCGUGCUUACCAAAATT against Rps11, inactive: -2.58. As to GGUGGUGGUGGUGAUUUUGTT against Mad2l2, the z-score was inactive: 1.66. With GGCCUGUUUAGUCUAUAUATT against Lztfl1, the z-score was inactive: -0.215.

As to GGAUGCUUGGCUGAAUCACTT against Smyd1, the z-score is inactive: 0.0932. Regarding GCCAGUUGGUUACUAUGGATT against Tax1bp3, the z-score is inactive: 2.54. Consider GGAAAGGAACAAAGAAUCATT against Cpb2, for which the z-score is inactive: 1.65.

“GGAAGUUUUGGGAGUGUGUTT against B230120H23Rik”: the z-score was inactive: -0.52. GGAGAAGAAGAAAACGUACTT against Mmp10: the z-score was inactive: 0.19. As for GGUAAACAUUGCUACUUUGTT against Mpdz, the z-score is inactive: -0.383. In the case of “GGCCAAAAUUAAAAAGGCCTT against 2810405I11Rik”, the z-score is inactive: 1. For “GCUGAACAACGAUUGCUCATT against 2700050C12Rik”, the z-score is inactive: -0.163. Consider CCUUGAACGAGAGUGCAUUTT against Pros1, for which the z-score is inactive: 0.786. To GCCGCCACAGAAAAAGUCUTT against Dtx3l belongs inactive: -1.27. Regarding CCUGUGAAAUACCAGCGUGTT against BC003885, the z-score was inactive: 1.31. With GGAAGUCAUCUCCUACUAUTT against Lix1, the z-score was inactive: -0.467. On to CGCCUUCAUUAUGGUGACGTT against Pigc, for which the z-score is inactive: -0.675.

Consider CCUGUUGUGCAGAUGGUUUTT against Rab28, for which the z-score is inactive: 0.233. On to GGGCUUCUUCUGCUAUGACTT against BC018242, for which the z-score is inactive: -1.87. As for GAUAAAGGAUACCUCAGUGTT against Scrt1, the z-score was inactive: -0.214.

On to CCAACAUAUUGUUCGUCGGTT against Slc13a2, for which the z-score was inactive: 0.156. For CCUCAUUUUAGUCGUAGAATT against Syt11 the value was inactive: 1.05; for GGGAACAGAAGUCAAGAGATT against LOC406217, inactive: 1.06. For the sequence CCAUUCUUAUUGUUGAGAATT against Nek9, the z-score is inactive: -0.576. Regarding GCAUUCCUCAUACUUACUGTT against Olfr671, the z-score is inactive: 0.491. Regarding “GCUCUUUAUCCUAAUCCGGTT against 2310075G12Rik”, the z-score is inactive: 0.366.

Take GGCCCUUCAGCAGAAAAAUTT against Pcoln3: the z-score was inactive: -0.776.

Take “GCUAUGCAGUGACCACACUTT against C130046B21Rik”: the z-score is inactive: -0.738. Turning to “GGAGAAAGAGCCUUUAAGGTT against 1200003C23Rik”, the z-score is inactive: 0.703.

With GACCUACAAGAAGUUCGGCTT against Nkx2-4, the z-score is inactive: 1.1. For the sequence GGUGGCACUGAUGGAAUUGTT against Hsd17b12, the z-score is inactive: 0.273. Turning to “GCCUUCUUAAGCUCUGAGCTT against 2610209N15Rik”, the z-score is inactive: -0.853. For the sequence “CCAAUUAGUCACUCUUAGATT against 1300002F13Rik”, the z-score was inactive: -0.202.

On to GGAGAGAAUCAGAGAGAACTT against Akr1c18, for which the z-score is inactive: 0.067. To GGAUAAAAACUACAAAGAGTT against Tyki belongs inactive: 1.06; to GGAUCAAACACAAUCCUAATT against V1rd7, inactive: -0.474.

On to “GGUGUGUGAGAUUAAAAGCTT against 9130231C15Rik”, for which the z-score was inactive: 0.827. Consider GGGCAUACAUAUAACCUAUTT against Plekhc1, for which the z-score was inactive: 0.785. For GCCAUCUACUCUUUAAAUATT against Pdha1 the value was inactive: -0.502. Turning to GGGAAAGUGUUCUCACUCATT against Zfp111, the z-score is inactive: 1.08.

In the case of CGAACUAAGCCAAUCUCUGTT against Pcdha2, the z-score is inactive: -0.561. Consider GGCAAUGCACUUAUAACUCTT against Olfr118, for which the z-score was inactive: 1.29. Turning to GGAGCACCAGAGUUAAAACTT against Lu, the z-score was inactive: 1.22. Take “CGUGGUCGUGAGAUGUUUGTT against 3110023E09Rik”: the z-score was inactive: 0.604. With CCUGAUUGACGACAGUAAGTT against Mcrs1, the z-score was inactive: 0.351.

Turning to CCCUAGUUUGAAUGUAAUATT against Npm2, the z-score is inactive: -0.553. As to GGAAGUGGACCUGAGUGACTT against Taf6, the z-score was inactive: 0.0803.

Take CCUCACUGUUUUACACCUUTT against Olfr1152: the z-score is inactive: -0.188. To GGAAACUGAAGGAGGUACGTT against Ush1c belongs inactive: -0.485; to GGCCGACCAGCUGUAUAAGTT against Pdha2, inactive: 2.04; to GGAAUGCUACAACUCAAAATT against Ptk2, inactive: 0.648. As to GGUCACUGUAAAAUGAACCTT against Odf2, the z-score is inactive: 0.745. Consider GCCAGUUAGAUGAAUUUCATT against C80879, for which the z-score was inactive: -2.84. With “GCUGGUAGGAAGUCCAAAATT against 2310008H09Rik”, the z-score is inactive: -1.07. In the case of GCUCCUCGUUCCACACAUCTT against Alox12, the z-score is inactive: 0.136. On to GGAAGAUUUACAGAUUCAATT against Lta4h, for which the z-score was inactive: 1.63.

Turning to “GGAACACAUGCUAAGCAGATT against 1110032A03Rik”, the z-score was inactive: -0.719. As for GGCAUUACCAUUGGAUCUGTT against Mgl2, the z-score was inactive: -0.973. For CCCAAAUUGAAAGGGCAGGTT against LOC271048 the value was inactive: 0.457; for GGGAAUGGCUUGAUUCUGUTT against Olfr609, inactive: 0.522. For CCCUCAGUUGUACCAUCAATT against Olfr298, the z-score is inactive: 0.31. For CCAACAAUUCUGCCAAGACTT against Arrb2 the value was inactive: -2.41; for “GGCUAAGAACUCUAAGAAATT against 4732427B05”, inactive: -2.93.

For the sequence GGAAAUCGAGGACUUAUACTT against Prkwnk4, the z-score is inactive: 0.139. For GGCAGGCAAAAAGCCUUUUTT against Olfr1022 the value was inactive: 0.0393. In the case of “GCAGGUUGAACGACAGCGUTT against 2410012M04Rik”, the z-score is inactive: -0.458. For “GGUUCACAGAAAUUGAGGUTT against 2810048G17Rik”, the z-score is inactive: -0.246. Consider GCUAUCCUUUCUUGCUGCATT against Tlr12, for which the z-score was inactive: -1.34.

In the case of GGAAAUACAAAUGAGUUGATT against Txndc9, the z-score was inactive: 0.152.

Turning to GGCCUUUCUCACACUGCAUTT against Fto, the z-score is inactive: -0.634. On to GGAAUCUGCAUGGUUUGCCTT against Vgll4, for which the z-score is inactive: 0.656. For “GGAUCUAAGCCUGUUGUGATT against 6030449J21”, the z-score is inactive: -0.656.

GGAGACGAGGUCAUCAUCATT against Ccbl1: the z-score is inactive: 0.326. For GGACAACUAGCAGAUGGGATT against L3mbtl2 the value was inactive: -1.12.
